Reference: patent publication CN114617961A
These are yes or no findings as the source states them, for the method shown. Some entries that bind do so weakly or less than the wild type.

B1: 人源化抗体HA-1 (human IgG4 / human Ck) (antibody, V domains shown)
VH: QVQLVQSGAEVKKPGASVKVSCKASGYTFTDTYMHWVRQAPGQGLEWIGKIDPANGNTKYDPKFQGRATITADTSISTAYMELSRLRSDDTAVYYCARDTTVGLDYWGQGTLVTVSS
VL: DIVITQSPAFLSVTPGEKVTITCRASSSVNYMYWYQQKPDASPKLWIYYTSKLASGVPSRFSGSGSGTDYTFTISSLEAEDAATYYCQQWSSNPHTFGGGTKVEIKR
B2: 人源化抗体HA-3 (human IgG4 / human Ck) (antibody, V domains shown)
VH: QVQLVQSGAEVKKPGASVKVSCKASGYNITDTYMHWVRQAPGQGLEWIGKIDPANGNTKYDPKFQGRATITADTSISTAYMELSRLRSDDTAVYYCARDTTVGLDYWGQGTLVTVSS
VL: DIVITQSPAFLSVTPGEKVTITCRASSSVNYMYWYQQKPDQAPKLLIYYTSKLASGVPSRFSGSGSGTDYTFTISSLEAEDAATYYCQQWSSNPHTFGGGTKVEIKR
B3: 人源化抗体HA-5 (human IgG4 / human Ck) (antibody, V domains shown)
VH: QVQLVQSGAEVKKPGASVKVSCKASGYNIKDTYMHWVKQAPGQGLEWIGKIDPANGNTKYDPKFQGKATITADTSISTAYMELSRLRSDDTAVYYCARDTTVGLDYWGQGTLVTVSS
VL: DIVITQSPAFLSVTPGEKVTITCRASSSVNYMYWYQQKPDASPKLWIYYTSKLASGVPARFSGSGSGTSYTFTISSLEAEDAATYYCQQWSSNPHTFGGGTKVEIKR
B4: 人源化抗体HA-2 (human IgG4 / human Ck) (antibody, V domains shown)
VH: QVQLVQSGAEVKKPGASVKVSCKASGYTFTDTYMHWVRQAPGQGLEWIGKIDPANGNTKYDPKFQGRATITADTSISTAYMELSRLRSDDTAVYYCARDTTVGLDYWGQGTLVTVSS
VL: DIVITQSPAFLSVTPGEKVTITCRASSSVNYMYWYQQKPDQAPKLLIYYTSKLASGVPSRFSGSGSGTDYTFTISSLEAEDAATYYCQQWSSNPHTFGGGTKVEIKR
B5: 人源化抗体HA-4 (human IgG4 / human Ck) (antibody, V domains shown)
VH: QVQLVQSGAEVKKPGASVKVSCKASGYNITDTYMHWVRQAPGQGLEWIGKIDPANGNTKYDPKFQGRATITADTSISTAYMELSRLRSDDTAVYYCARDTTVGLDYWGQGTLVTVSS
VL: DIVITQSPAFLSVTPGEKVTITCRASSSVNYMYWYQQKPDASPKLWIYYTSKLASGVPSRFSGSGSGTDYTFTISSLEAEDAATYYCQQWSSNPHTFGGGTKVEIKR
B6: MA-3 鼠源抗体 (mouse IgG1 / mouse Ck) (antibody, V domains shown)
VH: EVKLEESGPELVKPGASVKISCKASGYSFTSYYIHWVKQRPGQGLEWIGWIFPGTGNTRYNEKFKGKATLTADTSSSTVYMQLSGLTSEDSAVYFCARIGGRLTGDAMDYWGQGTSVTVSS
VL: DIVLTQSTASLAVSLGQRATISCRASESVDSYGNSFMHWYQQKPGQPPKLLIYLASNLESGVPARFSGSGSRTDFTLTIDPVEADDAATYYCQQNNEDPWTFGGGTKLEIKA
B7: MA-2 鼠源抗体 (mouse IgG1 / mouse Ck) (antibody, V domains shown)
VH: EVQLQQSGAELVKPGASVKLSCTASGFNIKDTYMHWVKQRPEQGLEWIGKIDPANGNTKYDPKFQGKATITADTSSNTAYLQLSRLTSEDTAVYYCARDTTVGLDYWGQGTTLTVSS
VL: DIVLTQTPAIMSASLGEKVTMSCRASSSVNYMYWYQQKSDASPKLWIYYTSNLAPGVPARFSGSGSGNSYSLTISSMEGEDAATYYCQQFTSSPSMTFGGGTKLEIKA
B8: MA-4 鼠源抗体 (mouse IgG1 / mouse Ck) (antibody, V domains shown)
VH: QVKLEESGPGLVQPSQSLSITCTVSAFSLTTYAVHWVRQSPGKGLEWLGVIWSGGSTDYNTAFISRLNITKDNSKSQVFFKMNSLQANDTAIYYCARLDGTFFDYWGQGTTLTVSS
VL: DIVLTQTPAIMSASLGERVTMTCTASSSVSSSYLHWYQQKPGSSPKLWIYSTSNLASGVPARFSGSGSGTSYSLTISSMEAEDAATYYCHQYHRSPPTFGGGTKLEIKA

These binders were tested against T1, LAG-3 (human) (UniProt P18627) (assay: ELISA on coated LAG-3).
T1 sequence (looked up): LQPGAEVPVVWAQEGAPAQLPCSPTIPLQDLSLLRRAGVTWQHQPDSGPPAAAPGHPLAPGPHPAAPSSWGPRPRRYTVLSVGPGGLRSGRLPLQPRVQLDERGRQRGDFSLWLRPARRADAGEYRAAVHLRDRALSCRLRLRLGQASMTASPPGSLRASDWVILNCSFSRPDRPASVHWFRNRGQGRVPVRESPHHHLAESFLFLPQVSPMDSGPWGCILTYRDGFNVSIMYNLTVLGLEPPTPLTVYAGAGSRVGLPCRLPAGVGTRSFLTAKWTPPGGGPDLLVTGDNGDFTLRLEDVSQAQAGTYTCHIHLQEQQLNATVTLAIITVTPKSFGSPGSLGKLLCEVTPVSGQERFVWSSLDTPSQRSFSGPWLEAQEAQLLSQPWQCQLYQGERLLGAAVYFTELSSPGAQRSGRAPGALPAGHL

binding, binds:
B1, B2, B3, B4, B5, B6, B7, B8
